Here are results for five molecules from publication PMC11508090.

No constants are given. Whether binding was seen depends on the method and setting. Binding seen in cells or lysates may run through a third protein. Here binding means that the protein was enriched with, or labelled near, the bait; the list need not be complete. For some of these results: A no says only that the protein was not detected with the bait. For some of these results: Sequences can lack the tags named with a protein.

The target in test [1] is Zip4-TurboID (S. cerevisiae). The test is described as follows: proximity labelling; eleven TurboID fusion strains (ndt80, homozygous) and a no-TurboID control, ~24 h sporulation, two replicates; TCA extract, streptavidin-sepharose pull-down, trypsin, UPLC-MS/MS; targets = in both replicates and in neither control.
The target in test [2] is Zip4iTurboID (S. cerevisiae). Described as above.
Test [3] deals with Zip4iTurboID (S. cerevisiae). The experiment in a line: proximity labelling; TurboID fusion allele (homozygous, or heterozygous where said) in ndt80 diploid cells, 24 h in sporulation medium, endogenous biotin; TCA extract, 8% or 12% SDS-PAGE, streptavidin:HRP blot; also done in mutant backgrounds in which the labelling was kept.
Test [4] concerns the target T1, Zip2-TurboID (S. cerevisiae) (UniProt P53061).
T1 sequence: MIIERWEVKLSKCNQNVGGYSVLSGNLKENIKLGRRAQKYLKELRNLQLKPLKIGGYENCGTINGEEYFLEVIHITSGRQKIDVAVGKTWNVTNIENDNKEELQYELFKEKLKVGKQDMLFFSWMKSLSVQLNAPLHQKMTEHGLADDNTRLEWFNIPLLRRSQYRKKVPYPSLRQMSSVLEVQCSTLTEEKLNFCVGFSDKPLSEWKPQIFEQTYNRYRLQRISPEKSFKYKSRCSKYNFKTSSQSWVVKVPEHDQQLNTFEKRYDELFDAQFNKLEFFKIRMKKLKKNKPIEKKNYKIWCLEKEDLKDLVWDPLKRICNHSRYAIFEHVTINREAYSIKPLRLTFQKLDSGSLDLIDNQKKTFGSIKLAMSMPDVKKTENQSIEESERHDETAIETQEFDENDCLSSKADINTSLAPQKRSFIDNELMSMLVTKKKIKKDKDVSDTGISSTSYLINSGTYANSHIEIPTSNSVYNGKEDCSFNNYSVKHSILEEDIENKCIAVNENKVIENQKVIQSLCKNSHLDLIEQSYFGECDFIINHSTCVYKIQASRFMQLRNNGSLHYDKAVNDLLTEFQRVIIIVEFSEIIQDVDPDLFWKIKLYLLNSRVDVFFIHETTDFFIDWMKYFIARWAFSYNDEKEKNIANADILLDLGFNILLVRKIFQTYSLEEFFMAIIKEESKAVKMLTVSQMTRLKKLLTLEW
Described as above.

The target in test [5] is T2, Msh5-TurboID (S. cerevisiae) (UniProt Q12175).
T2 sequence: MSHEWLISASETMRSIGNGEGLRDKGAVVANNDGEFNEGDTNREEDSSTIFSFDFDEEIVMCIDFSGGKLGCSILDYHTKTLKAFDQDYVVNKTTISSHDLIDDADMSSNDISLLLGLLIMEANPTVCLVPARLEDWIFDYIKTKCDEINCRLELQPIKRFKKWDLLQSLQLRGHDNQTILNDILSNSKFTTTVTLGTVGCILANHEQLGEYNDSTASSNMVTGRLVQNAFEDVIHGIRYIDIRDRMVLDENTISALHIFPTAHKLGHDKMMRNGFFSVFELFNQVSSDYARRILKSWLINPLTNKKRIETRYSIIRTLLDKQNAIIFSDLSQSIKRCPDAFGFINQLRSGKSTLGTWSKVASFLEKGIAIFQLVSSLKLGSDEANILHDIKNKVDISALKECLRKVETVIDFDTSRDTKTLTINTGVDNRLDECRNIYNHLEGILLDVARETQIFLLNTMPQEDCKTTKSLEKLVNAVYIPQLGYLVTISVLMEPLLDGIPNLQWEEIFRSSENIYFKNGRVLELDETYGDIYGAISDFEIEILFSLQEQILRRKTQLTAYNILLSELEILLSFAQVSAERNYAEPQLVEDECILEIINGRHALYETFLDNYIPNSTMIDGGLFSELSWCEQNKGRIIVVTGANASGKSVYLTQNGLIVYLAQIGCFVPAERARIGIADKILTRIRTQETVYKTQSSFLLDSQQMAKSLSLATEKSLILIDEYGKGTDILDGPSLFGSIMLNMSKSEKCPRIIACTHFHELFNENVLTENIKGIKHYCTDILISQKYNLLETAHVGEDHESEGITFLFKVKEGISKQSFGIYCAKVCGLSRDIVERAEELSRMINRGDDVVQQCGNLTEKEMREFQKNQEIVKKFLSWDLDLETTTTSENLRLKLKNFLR
The test is described as follows: proximity labelling; eleven TurboID fusion strains (ndt80, homozygous) and a no-TurboID control, ~24 h sporulation, two replicates; TCA extract, streptavidin-sepharose pull-down, trypsin, UPLC-MS/MS; targets = in both replicates and in neither control.

Test [6] concerns the target T3, Msh4-TurboID (S. cerevisiae) (UniProt P40965).
T3 sequence: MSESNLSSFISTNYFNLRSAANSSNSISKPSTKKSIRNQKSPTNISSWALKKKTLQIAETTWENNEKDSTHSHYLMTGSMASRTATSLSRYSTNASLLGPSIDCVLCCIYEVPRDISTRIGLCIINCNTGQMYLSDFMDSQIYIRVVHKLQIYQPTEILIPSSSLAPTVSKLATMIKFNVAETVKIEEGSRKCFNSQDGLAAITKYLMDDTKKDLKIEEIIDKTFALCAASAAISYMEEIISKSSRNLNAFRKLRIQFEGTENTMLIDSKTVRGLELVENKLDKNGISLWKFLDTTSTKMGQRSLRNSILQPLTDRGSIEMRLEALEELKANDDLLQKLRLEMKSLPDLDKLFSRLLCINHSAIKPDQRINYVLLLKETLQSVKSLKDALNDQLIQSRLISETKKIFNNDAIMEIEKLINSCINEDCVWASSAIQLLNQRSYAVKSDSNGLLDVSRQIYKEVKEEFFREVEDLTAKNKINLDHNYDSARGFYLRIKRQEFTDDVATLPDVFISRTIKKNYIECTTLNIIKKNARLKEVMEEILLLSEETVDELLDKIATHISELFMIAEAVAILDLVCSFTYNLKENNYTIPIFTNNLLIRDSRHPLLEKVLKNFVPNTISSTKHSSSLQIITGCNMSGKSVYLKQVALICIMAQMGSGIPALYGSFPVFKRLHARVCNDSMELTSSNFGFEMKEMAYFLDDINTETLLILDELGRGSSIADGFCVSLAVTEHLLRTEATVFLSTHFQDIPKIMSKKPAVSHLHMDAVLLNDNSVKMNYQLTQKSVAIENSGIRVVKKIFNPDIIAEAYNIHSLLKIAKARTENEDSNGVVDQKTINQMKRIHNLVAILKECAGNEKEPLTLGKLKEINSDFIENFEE
The test is described as above.

B1: Spo16 (protein, UniProt P17122 1-198)
chain: MSEFFWDVQKIQEISNVEEHSVVKCVTVNTSRLISQLNEELQDEESGVNFIVTQLQLLINNVYEKIQKSPGVPAHRSLMINLNFTRLKFSIAYWDILLERSLDLINGPSKTGARYFITEVTPVDRSRYVENNQYFLAFKANQRLTRNSVDMDEFIDFEILIKQIIFDLFKKNGIPDQDFEAILSRFHNLESLVVAFNE
Consider B1, for which the binding result in test [1] and in test [2] was “no binding” each time.

B2: Ecm11-3xFLAG (protein, UniProt Q04110 1-302)
chain: MTVIKTEPTTEVTLYSPPSKESLSKDDAHRKKQNNKPPSSINSRSGPNKHKLAAKAPEKKINNTDKQDLSAFLLNPSLIVKPSESKKKENIVAYNDTPGIKTEHTAFQPLTPISKKRALKEKAASEKCDSFDLSRDEKPYIQKKSKTLSSVTEINSSEYKLSLNGENTSSPAKEKSQEPIENPGSYQKTRNYLFEKPDPLDTCLQDYSSMLPSNVAEEDQEYFISVADSTLEEWTNKGQEIIDQQFQLYQEIIKKRIELSYKFKGIISVINDRADALEEQGQQLEGKIKKVKTLANEILNII
As for B2, the binding result in test [3] is listed as “no binding”.

B3: Zip3iMYC (protein, UniProt Q06032 1-482)
chain: MGGYLAIVFIPQTNTKSMREKKQKCLKQVRRLSLISPKKYIMPDSIFEQPFVYCGVCHRRTSHGDPLRLTSCAHILCSQHSPLTSKVCPICRSSDISIINLVESKQLPTDIRIFFEPLPPLLESLYNVSQFQLNGLSKQCQYYQNHCLKLREKCARQQQLLYQAKIELDSMAILKKRIQELESVLNHNNVSSMSVGVLPTRNSHQNHYQPPPTVDLTVDDNSLEEFEAKSFIKKLKKNSSLRNSSKNNNGTVTPSTSGRVNKNQPLFMETLNNPNRNSIPPPGMNPNANSNLPNISTIAESTNLNRFSFSPVRVAKGFDGKLPNLDILTNNGSVSSKNISRLSSASLQPSSPLSSSSNRLILPNSNLKELHHSNTPLTSTSTQFPSALEKLKITRKRNNTISGSNRITHNLSSHVRSSGLAFSSSSNSLQQSKLPKSNILKRSNSTQQLTNTHLKSDNHLPPRSSNTVLGSSKKNNKFRRIR
As for B3, the binding entry in test [4] is “binds”.

B4: Msh5 (protein, UniProt Q12175 1-901)
chain: T2 sequence
B4: the binding result in test [1] and in test [2] was “binds” each time.

B5: Zip2 (protein, UniProt P53061 1-704)
chain: T1 sequence
Turning to B5, the binding entry in test [5], in test [6], in test [1] and in test [2] was “binds” each time.
